For at least one compound, name, drawing or mass did not settle the structure.
Key:
[1] = leptin sensitizer; cited from earlier work
[2] = system: MTDH, FANCD2 and FANCI; experiment: Western blotting of MTDH, FANCD2 and FANCI protein levels in cancer cells; type: cell-based; conditions: for MTDH, FANCD2 and FANCI protein levels: Hec50, MDA-MB-231 and KLE cells
[3] = system: FANCD2; conditions: lung cancer cells; cited from earlier work
[4] = system: KLE cells; experiment: Cell viability by WST-1 assay in KLE cells; type: cell-based; conditions: pristimerin at doses as low as 100 nM with cisplatin, 72 hours
Description: (§1) Cell viability was determined by WST-1 assay. Cells were seeded into 96-well plates (1×10^4 cells per well) then treated with cisplatin (Fresenius Kabi Oncology Ltd, Haryana, India) or the combination of cisplatin with pristimerin in solution (Cayman Chemical, Ann Arbor, Mich.). Cell viability was evaluated using the cell proliferation reagent WST-1 (Roche, Germany) according to the manufacturer's protocol. The absorbance was measured with a micro-plate reader (BioRad). Data were calculated as percent (%) viability relative to untreated control, which was set at 100%.
as §1, with “Ltd.,” for “Ltd,”, “Absorbance” for “The absorbance”, “microplate” for “micro-plate”

[5] = system: Hec50 cells; experiment: Cell viability by WST-1 assay in Hec50 cells; type: cell-based; conditions: pristimerin at doses as low as 100 nM with cisplatin, 72 hours
Description: as §1
as §1, with “Ltd.,” for “Ltd,”, “Absorbance” for “The absorbance”, “microplate” for “micro-plate”

[6] = system: chymotrypsin-like protease activity; conditions: cited from earlier work
[7] = system: PDX1 tumors; experiment: Patient-derived xenograft (PDX1) model of endometrial cancer, tumor growth; type: in vivo, mice; conditions: pristimerin in solution, preliminary study in PDX mouse model (data not shown)
Description: Patient-derived xenograft (PDX) studies: A PDX model of endometrial cancer (PDX1) has been previously described (Luo et al., 2010). NOD.Cg-Prkdcscid Il2rgtm1Wjl/SzJ (NSG, Jackson Laboratories, Bar Harbor, Me.) immunodeficient female mice at 8 weeks of age were injected with passage 3 of PDX1 tumor tissue (10 mg/100 μl medium) into the right flank subcutaneously. The mice were randomly divided into 4 groups, with 5 mice per drug treated group, and 4 mice comprised the empty nanoparticle control group. Treatment was started on day 15 after engraftment of cells. The dose of pristimerin delivered in nanoparticles was 60 μg for each mouse and was administered by intravenous injection (IV) injection twice a week for a total of 4 weeks. The dose of cisplatin was […] for each mouse and was administered by intraperitoneal (IP) injection twice a week for a total of 4 weeks. After 2 weeks of treatment, tumors were measured weekly using calipers, and volumes were calculated using the formula length×width^2/2.
All animal studies were performed under animal protocols #7051085 approved by the University of Iowa Institutional Animal Care and Use Committee (Iowa City, Iowa). MTDH knockout mice were generated as described previously (Meng et al., 2015). […] After 2 weeks of treatment, tumors were measured weekly using calipers, and volumes were calculated using the formula […].

[8] = system: CHOP, cleaved caspase 3 and LC3B; experiment: Western blotting of ER stress, apoptosis and autophagy biomarkers in cancer cells; type: cell-based
[9] = system: MDA-MB-231 cells; experiment: Cell viability by WST-1 assay in MDA-MB-231 cells; type: cell-based; conditions: pristimerin at doses as low as 100 nM with cisplatin, 72 hours
Description: as §1
as §1, with “Ltd.,” for “Ltd,”, “Absorbance” for “The absorbance”, “microplate” for “micro-plate”

Row | Compound | body weight in obese mice [1] | protein levels of MTDH, FANCD2 and FANCI ([2]; Hec50 cells, 24 hours treatment) | MTDH and FANCI protein levels ([2]; cancer cells) | proteasomal degradation of FANCD2 [3] | sensitivity to cisplatin, KLE cells [4] | sensitivity to cisplatin, Hec50 cells [5] | chymotrypsin-like protease activity [6] | tumor growth inhibition [7] | MTDH, FANCD2 and FANCI protein levels ([2]; in combination with cisplatin (5 μM)) | MTDH, FANCD2 and FANCI protein levels ([2]; single drug (1 μM)) | MTDH, FANCD2 and FANCI protein levels ([2]; single drug (1 μM), listed as Pristimerin) | expression of ER stress marker CHOP ([8]; 16 hours treatment (1 μM)) | expression of ER stress marker CHOP ([8]; 16 hours, in combination with cisplatin (5 μM)) | protein levels of CHOP, cleaved caspase 3 and LC3B ([8]; Hec50, MDA-MB-231 and KLE cells) | sensitivity to cisplatin, MDA-MB-231 cells [9]
1 | CC1=C(O)C(=O)C=C2C1=CC=C1[C@@]2(C)CC[C@@]2(C)[C@@H]3C[C@](C)(C(=O)O)CC[C@]3(C)CC[C@]12C [celastrol] | weight loss | reduced | reduce | promotes proteasomal degradation | – | – | – | – | – | – | – | – | – | – | –
2 | COC(=O)[C@]1(C)CC[C@]2(C)CC[C@]3(C)C4=CC=C5C(=CC(=O)C(O)=C5C)[C@]4(C)CC[C@@]3(C)[C@@H]2C1 [pristimerin, Pristimerin] | – | – | – | – | increased sensitivity to cisplatin | increased sensitivity to cisplatin | inhibit | did not induce significant tumor growth inhibition | decreased | decreased | significantly decreased | induced | induced | increased | increased sensitivity to cisplatin
